Here are results for two molecules from paper PMC7671503.

No constants are given. Whether binding was seen depends on the method and setting. Binding seen in cells or lysates may run through a third protein. Some results given as binding are weak or reduced against the parent protein; the word gives no strength. Tags and fused reporters may be left off the sequences shown.

The target of this test is Myc-tagged Sth1, the core catalytic subunit of the CaRSC complex (C. albicans). Kind of test: co-IP; lysates of C. albicans cells expressing Sth1-Myc and HA-tagged partner; Sth1-Myc precipitated with polyclonal anti-Myc (ab9106); blot with anti-Myc 9E10 and anti-HA 3F10.

B1: C1_01800p-HA (HA-tagged Nri2) (protein, UniProt Q59T87 1-239)
chain: MVKNTSYKKQKLSSRNRIINQEVPLFPPTKYEKSKATLKHFPSSIVNGVTAEGGLYSLTFKSINCASFVENNELMKTVFKVPKLELSKVTDNDDVDKLKNWKQTLENDINELKKSDSNVANTNIVSDLQNELQTDLENNGNNLATFGEKLADSFVVNINISDGNYKVIQDVIIPGLQVDTFEDVTNPDLSEYEKITLSDTQNEEKEETGNKQETEVGQEVESEQKDENKTEQTSQPTST
As to B1, the binding result is “binds”.

B2: C2_01370p-HA (HA-tagged Nri1) (protein, UniProt Q5ALY5 1-618)
chain: MDVRRCRRCKRKRLDDEPDEVRQYKTCAKCRIIERNKKNSRKPLAEETMLYGLKQFREQQSAENYIEEEGLLKDEFFKRYHNKPFNYQEEITKVLNNPNYVPPVLHNHNTDEVVTSSNGNTTGPKYQMTMKTNNTTGVQPPIKSRKQQQQPQPQQQQQQTQQHRHQQHQHQQQTHHHNQLHHQQETVIVDDEEDLYKILSELGNDDNSAKNDSKIIKENLDPYANDNVYDDFQKYLTTILEKLHSDKDIKNLVYLKEFNEVFTTNMSKFDAYTKDRTTLYQSIRLSEKQFRSHLLSNIRAMYIDPIIACLGLLYKQEYTNINEFKSTTSIKCGFSYIAKSAEQDEIKNLKESSIILVYNKKYHLLVIKLNHTSYRPSEIIYPNEFKQKVASVFGLLQMEEYSPESTAIFQNINLDYNAITGGLVYDKLVSVSHTYSEELQKFLKGLDKDVFIADFVNYEKVFKLDEENGVNDDDDDMDVDEEKPENKEEEQPQQQEQEGDVDVKMDVEEDGDHELENDVSQANKNDNESESVGQTEEEEEEEEEEEIQVEEAHVPSDELELALGESLAIENDNESENEINQTTTTFVSNENKEDDNNNDDILTKKESTVEVLDPVFQF
With B2, the binding entry is listed as “binds”.
